Measurements taken from patent US10882901B2, “Methods of treating diabetes by an adipocyte protein 2 specific antibody” (President and Fellows of Harvard College, priority 2009, dated 2021).

Assay: Body weight and serum free fatty acids of treated mice
Type: in vivo
Settings: regular chow diet mice, recombinant aP2 100 μg twice a day for two weeks

B1: recombinant aP2: Recombinant aP2 with 6×His tag produced in E. coli, purified, endotoxin removed (protein)
chain: CDAFVGTWKLVSSENFDDYMKEVGVGFATRKVAGMAKPNMIISVNGDLVTIRSESTFKNTEISFKLGVEFDEITADDRKVKSIITLDGGALVQVQKWDGKSTTIKRKRDGDKLVVECVMKGVTSTRVYERA
**Q.** Which body weight does the source give for B1 here?
**A.** did not alter body weight

**Q.** And the “serum free fatty acid levels” value?
**A.** did not alter
